Values quoted from earlier work, collected in patent publication US20050203105A1, “Composition and method for controlling alcohol-induced facial flushing in susceptible humans” (priority 2003, published 2005).

Conditions: single-dose study

Question: For `Clc1ccc2c(c1)CCc1cccnc1C2=C1CCNCC1` [desloratadine, descarboethoxyloratadine], which “effect of food on peak plasma concentrations (Cmax)” value is on record?
Answer: not affected by food
